No constants are given. Whether binding was seen depends on the method and setting. Some binding calls cover weakened binding; strength is not graded here.
Molecular target: human ICOS receptor (inducible costimulator) on CHO cells (human) (UniProt Q9Y6W8)
Test: cell-based ligand-receptor blocking assay (HRP read-out on adherent cells); CHO cells expressing human ICOS in 96-well plates; ICOSL-hFc (20 µl at 450 ng/ml) preincubated 1 h with serially diluted anti-ICOSL VNAR, added to cells 1 h at 16°C in DMEM/F12 + 2% FBS; bound ICOSL-hFc detected with goat anti-human Fc-HRP; only the binder purified

Sequences of proteins named here, by UniProt entry; tags and fusion partners are left off. Residues count along the entry.
UniProt Q9Y6W8, residues 21-199: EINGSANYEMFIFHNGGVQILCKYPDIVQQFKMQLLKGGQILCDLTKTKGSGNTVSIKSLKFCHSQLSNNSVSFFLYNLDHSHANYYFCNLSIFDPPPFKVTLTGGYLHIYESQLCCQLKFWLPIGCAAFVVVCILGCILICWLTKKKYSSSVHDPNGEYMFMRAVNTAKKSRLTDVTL
UniProt Q9JHJ8, residues 47-277: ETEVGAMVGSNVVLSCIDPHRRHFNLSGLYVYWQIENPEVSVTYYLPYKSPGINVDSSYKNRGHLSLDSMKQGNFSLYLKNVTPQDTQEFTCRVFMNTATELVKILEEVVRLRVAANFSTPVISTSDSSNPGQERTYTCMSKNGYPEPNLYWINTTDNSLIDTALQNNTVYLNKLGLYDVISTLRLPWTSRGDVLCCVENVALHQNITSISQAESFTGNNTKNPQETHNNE

recombinant mouse B7-H2/Fc (mICOSL-Fc) (from UniProt Q9JHJ8 47-277) (Fc fusion)
binding: binds
